Results published in the supplement of paper PMC12823440, “Inhibitors supercharge kinase turnover through native proteolytic circuits” (Nature, 2025).
Where a name gives a salt, the structure may show the parent alone. This is one part of the list. Hit calls seldom repeat between salt and free forms of one compound.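 Kinases, fused to nanoluciferase, were expressed in K562 cells; luminescence was measured every 4 h from 2 to 18 h as percent of control (DMSO = 100%, positive control = 0%). A time point is decreased if signal falls significantly (2 sigma). Hits were called by the authors by a rule that is not shown; the count of time points alone does not decide it.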

Protein sequences, listed by entry. Tags and fused reporters are not part of them. Lines headed by an entry give the natural chain unless they say otherwise; changes in a name come on top.
UniProt Q15208: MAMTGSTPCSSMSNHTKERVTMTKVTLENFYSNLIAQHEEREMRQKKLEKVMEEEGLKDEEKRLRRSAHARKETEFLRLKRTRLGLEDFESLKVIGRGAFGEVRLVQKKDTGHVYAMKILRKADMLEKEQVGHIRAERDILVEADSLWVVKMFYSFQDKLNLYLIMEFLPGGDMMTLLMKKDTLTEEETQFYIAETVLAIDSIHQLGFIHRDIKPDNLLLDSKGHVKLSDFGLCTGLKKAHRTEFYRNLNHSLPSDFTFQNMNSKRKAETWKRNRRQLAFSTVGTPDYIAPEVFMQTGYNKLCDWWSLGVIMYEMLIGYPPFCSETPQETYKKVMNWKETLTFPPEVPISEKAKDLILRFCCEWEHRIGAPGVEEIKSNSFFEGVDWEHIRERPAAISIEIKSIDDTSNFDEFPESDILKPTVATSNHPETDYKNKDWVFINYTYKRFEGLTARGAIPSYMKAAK
UniProt P42680: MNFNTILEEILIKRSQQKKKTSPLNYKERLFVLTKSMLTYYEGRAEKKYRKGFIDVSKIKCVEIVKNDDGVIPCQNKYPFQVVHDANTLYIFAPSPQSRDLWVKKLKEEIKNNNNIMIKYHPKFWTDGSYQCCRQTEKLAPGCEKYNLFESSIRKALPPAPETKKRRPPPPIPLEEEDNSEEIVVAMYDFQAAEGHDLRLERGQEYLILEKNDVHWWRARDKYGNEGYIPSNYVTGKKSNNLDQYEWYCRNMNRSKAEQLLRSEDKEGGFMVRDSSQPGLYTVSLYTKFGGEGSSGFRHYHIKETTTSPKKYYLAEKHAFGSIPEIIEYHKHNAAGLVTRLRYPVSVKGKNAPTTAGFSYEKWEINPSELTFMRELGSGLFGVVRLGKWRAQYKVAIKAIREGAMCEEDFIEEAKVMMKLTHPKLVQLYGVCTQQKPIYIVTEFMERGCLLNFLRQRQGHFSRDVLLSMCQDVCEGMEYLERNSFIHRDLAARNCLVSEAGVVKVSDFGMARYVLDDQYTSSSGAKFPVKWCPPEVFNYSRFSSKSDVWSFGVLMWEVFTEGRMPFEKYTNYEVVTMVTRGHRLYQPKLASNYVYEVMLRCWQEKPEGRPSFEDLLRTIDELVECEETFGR
UniProt P29597: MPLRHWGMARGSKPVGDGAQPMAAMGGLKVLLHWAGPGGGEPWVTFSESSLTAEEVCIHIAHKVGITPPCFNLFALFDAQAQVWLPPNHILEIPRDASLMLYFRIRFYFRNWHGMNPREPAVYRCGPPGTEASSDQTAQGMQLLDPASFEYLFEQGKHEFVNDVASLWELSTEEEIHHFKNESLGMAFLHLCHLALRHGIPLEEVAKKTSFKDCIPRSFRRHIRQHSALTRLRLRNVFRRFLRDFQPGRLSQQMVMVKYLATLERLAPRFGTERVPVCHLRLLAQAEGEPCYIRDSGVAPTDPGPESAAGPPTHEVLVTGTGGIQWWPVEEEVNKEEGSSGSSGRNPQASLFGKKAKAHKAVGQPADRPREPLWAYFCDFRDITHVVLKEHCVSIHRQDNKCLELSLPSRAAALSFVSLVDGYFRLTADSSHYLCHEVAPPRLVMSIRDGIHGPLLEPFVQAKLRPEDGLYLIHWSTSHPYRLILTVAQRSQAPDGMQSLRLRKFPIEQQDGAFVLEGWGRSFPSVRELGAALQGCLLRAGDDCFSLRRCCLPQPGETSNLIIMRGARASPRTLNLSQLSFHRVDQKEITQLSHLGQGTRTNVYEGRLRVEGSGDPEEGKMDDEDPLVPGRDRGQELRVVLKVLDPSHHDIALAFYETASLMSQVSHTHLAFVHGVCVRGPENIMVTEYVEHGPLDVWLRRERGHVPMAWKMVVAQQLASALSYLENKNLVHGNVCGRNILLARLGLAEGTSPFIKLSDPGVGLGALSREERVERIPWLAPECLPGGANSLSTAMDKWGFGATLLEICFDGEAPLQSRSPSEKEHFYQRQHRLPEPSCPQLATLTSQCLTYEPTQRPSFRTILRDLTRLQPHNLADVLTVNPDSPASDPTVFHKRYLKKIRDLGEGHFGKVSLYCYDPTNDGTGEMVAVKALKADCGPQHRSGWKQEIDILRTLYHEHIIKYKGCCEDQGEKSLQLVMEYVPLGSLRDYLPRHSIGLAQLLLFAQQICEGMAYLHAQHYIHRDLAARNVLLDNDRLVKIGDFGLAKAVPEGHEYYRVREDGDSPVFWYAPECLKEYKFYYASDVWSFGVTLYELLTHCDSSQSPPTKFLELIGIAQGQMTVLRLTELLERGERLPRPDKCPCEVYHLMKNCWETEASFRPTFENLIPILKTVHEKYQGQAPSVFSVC
UniProt Q6PHR2: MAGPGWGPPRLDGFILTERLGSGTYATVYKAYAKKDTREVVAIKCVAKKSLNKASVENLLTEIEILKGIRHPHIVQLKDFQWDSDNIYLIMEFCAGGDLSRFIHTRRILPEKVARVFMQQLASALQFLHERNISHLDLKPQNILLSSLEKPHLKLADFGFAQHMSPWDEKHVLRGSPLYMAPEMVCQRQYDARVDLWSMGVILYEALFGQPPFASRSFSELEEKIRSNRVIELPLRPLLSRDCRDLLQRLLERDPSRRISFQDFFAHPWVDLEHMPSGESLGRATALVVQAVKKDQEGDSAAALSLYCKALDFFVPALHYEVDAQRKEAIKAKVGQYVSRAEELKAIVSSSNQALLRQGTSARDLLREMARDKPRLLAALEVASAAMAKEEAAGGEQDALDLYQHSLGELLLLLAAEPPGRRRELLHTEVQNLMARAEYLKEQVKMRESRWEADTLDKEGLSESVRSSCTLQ
UniProt P43403: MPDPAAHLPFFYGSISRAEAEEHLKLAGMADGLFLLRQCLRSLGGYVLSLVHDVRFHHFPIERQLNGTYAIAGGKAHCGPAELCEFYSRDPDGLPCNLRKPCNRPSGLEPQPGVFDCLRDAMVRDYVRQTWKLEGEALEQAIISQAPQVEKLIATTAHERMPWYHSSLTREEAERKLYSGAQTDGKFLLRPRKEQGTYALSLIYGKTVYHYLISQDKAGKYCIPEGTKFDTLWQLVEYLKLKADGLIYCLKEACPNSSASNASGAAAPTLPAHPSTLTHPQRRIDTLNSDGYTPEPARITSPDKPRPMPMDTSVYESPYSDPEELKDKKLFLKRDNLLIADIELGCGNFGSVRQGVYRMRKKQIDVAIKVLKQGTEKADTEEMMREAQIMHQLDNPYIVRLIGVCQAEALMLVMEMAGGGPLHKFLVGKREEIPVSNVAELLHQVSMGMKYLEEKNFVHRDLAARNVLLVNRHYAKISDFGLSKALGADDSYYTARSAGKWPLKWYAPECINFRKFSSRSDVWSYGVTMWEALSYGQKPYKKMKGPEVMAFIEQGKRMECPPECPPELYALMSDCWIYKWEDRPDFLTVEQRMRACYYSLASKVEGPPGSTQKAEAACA
UniProt P31749: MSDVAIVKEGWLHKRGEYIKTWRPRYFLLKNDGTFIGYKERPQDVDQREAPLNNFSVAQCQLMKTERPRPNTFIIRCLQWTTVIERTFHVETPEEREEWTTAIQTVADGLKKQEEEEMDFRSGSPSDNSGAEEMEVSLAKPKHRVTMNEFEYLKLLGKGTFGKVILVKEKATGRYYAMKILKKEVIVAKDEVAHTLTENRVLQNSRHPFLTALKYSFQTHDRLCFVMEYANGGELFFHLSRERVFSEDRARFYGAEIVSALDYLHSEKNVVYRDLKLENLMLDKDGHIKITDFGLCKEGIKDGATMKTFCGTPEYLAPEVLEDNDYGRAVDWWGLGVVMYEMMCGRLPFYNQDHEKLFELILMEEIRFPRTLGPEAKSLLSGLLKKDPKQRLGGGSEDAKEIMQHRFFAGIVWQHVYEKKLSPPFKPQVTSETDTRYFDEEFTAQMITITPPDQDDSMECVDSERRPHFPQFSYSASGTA
UniProt P10398: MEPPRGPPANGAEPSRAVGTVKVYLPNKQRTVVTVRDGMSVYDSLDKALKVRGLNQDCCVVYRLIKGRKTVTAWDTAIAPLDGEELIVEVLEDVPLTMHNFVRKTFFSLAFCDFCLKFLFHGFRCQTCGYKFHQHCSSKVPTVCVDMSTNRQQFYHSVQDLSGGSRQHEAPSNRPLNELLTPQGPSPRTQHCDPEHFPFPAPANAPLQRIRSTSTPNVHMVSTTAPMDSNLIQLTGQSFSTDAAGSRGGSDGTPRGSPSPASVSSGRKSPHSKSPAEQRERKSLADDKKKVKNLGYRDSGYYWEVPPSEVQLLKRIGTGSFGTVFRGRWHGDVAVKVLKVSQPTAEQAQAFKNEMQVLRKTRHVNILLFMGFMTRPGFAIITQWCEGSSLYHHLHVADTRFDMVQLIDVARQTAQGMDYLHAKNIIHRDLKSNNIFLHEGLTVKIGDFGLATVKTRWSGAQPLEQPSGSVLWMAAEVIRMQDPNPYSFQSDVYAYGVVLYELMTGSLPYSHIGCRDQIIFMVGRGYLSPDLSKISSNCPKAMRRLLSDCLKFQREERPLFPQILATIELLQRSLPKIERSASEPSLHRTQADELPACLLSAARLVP
UniProt Q96GD4, whole entry: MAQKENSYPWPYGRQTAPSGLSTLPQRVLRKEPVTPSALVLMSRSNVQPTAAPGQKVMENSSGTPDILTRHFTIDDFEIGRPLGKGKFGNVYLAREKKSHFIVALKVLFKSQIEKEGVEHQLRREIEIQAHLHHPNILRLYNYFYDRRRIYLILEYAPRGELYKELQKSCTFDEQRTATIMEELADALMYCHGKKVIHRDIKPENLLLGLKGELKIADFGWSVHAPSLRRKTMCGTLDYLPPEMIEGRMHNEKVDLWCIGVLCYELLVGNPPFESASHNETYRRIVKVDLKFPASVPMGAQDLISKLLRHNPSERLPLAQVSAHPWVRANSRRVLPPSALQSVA
UniProt Q9UQB9: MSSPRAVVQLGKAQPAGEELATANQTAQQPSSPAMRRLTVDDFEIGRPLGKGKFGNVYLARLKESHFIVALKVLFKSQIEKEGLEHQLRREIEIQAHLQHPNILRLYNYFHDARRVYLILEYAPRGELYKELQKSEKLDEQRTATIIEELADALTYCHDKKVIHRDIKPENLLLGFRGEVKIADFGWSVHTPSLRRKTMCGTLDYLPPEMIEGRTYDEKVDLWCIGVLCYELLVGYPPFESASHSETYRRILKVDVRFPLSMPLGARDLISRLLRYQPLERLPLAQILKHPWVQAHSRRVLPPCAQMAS
UniProt P51451: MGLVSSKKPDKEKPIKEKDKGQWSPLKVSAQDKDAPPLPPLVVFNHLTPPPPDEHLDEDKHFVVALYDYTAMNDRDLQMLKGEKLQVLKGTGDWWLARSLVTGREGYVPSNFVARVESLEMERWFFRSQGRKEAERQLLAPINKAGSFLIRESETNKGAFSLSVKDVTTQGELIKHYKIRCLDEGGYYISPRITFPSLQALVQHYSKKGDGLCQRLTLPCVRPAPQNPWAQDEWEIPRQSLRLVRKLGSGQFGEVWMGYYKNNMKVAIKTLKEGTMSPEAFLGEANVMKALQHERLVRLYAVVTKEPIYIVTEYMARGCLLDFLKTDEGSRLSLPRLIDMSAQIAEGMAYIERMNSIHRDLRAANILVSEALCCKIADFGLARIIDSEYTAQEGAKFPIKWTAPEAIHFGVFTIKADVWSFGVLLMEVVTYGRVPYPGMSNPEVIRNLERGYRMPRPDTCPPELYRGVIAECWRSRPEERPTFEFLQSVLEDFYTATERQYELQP
UniProt Q06187: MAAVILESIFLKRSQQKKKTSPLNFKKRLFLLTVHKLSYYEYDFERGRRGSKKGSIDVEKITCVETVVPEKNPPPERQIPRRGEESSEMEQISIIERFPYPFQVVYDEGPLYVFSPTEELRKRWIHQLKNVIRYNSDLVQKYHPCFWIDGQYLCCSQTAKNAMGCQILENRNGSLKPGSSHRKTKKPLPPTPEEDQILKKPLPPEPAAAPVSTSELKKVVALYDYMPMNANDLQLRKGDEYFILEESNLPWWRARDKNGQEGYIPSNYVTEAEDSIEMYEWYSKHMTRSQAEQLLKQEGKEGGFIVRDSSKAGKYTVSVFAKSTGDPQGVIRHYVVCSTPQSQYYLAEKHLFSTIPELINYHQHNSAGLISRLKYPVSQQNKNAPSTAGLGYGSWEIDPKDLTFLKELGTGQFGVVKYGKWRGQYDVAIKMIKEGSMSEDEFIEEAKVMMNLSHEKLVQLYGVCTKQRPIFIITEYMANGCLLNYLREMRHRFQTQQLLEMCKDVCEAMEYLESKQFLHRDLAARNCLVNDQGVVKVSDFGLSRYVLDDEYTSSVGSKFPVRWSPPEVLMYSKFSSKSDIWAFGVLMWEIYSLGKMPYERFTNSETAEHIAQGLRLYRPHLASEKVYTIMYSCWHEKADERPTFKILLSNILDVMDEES

What was measured:
Details in all cases: K562; 2-18 h
[1] = biological target: STK38 (UniProt Q15208); test: kinase-Nluc reporter destabilization hit call (1 = scored as downregulated) (binary); higher = compound decreases kinase abundance
[2] = biological target: SYK (UniProt P43405); test: as above
[3] = biological target: TEC (UniProt P42680); test: as above
[4] = biological target: TYK2 (UniProt P29597); test: as above
[5] = biological target: ULK3 (UniProt Q6PHR2); test: as above
[6] = biological target: YES1 (UniProt P07947); test: as above
[7] = biological target: ZAK (UniProt Q9NYL2); test: as above
[8] = biological target: ZAP70 (UniProt P43403); test: as above
[9] = biological target: ABL1 (UniProt P00519); test: number of time points (of 5) at which kinase-Nluc abundance scored as decreased, DMSO-normalised (count); higher = more persistent destabilization
[10] = biological target: AKT1 (UniProt P31749); test: as above
[11] = biological target: ALK (UniProt Q9UM73); test: as above
[12] = biological target: ARAF (UniProt P10398); test: as above
[13] = biological target: AURKA (UniProt O14965); test: as above
[14] = biological target: AURKB (UniProt Q96GD4); test: as above
[15] = biological target: AURKC (UniProt Q9UQB9); test: as above
[16] = biological target: BLK (UniProt P51451); test: as above
[17] = biological target: BMX (UniProt P51813); test: as above
[18] = biological target: BRAF (UniProt P15056); test: as above
[19] = test system: BRAF_V600E; test: as above
[20] = biological target: BTK (UniProt Q06187); test: as above

| SMILES | kinase-Nluc reporter destabilization hit call [1] | kinase-Nluc reporter destabilization hit call [2] | kinase-Nluc reporter destabilization hit call [3] | kinase-Nluc reporter destabilization hit call [4] | kinase-Nluc reporter destabilization hit call [5] | kinase-Nluc reporter destabilization hit call [6] | kinase-Nluc reporter destabilization hit call [7] | kinase-Nluc reporter destabilization hit call [8] | number of time points [9] | number of time points [10] | number of time points [11] | number of time points [12] | number of time points [13] | number of time points [14] | number of time points [15] | number of time points [16] | number of time points [17] | number of time points [18] | number of time points [19] | number of time points [20] |
| --- | --- | --- | --- | --- | --- | --- | --- | --- | --- | --- | --- | --- | --- | --- | --- | --- | --- | --- | --- | --- |
| Nc1ncnc2c1c(-c1cccc(OCc3ccccc3)c1)cn2C1CC(CN2CCCC2)C1 (configuration not stated) (2.5 µM) | inactive: 0 | inactive: 0 | inactive: 0 | inactive: 0 | inactive: 0 | inactive: 0 | inactive: 0 | inactive: 0 | 0 | 0 | 0 | 0 | 0 | 0 | 0 | 0 | 0 | 0 | 0 | 0 |
| CN(C)C(=O)/C(C#N)=C/c1ccc(-c2nc3cnc4[nH]ccc4c3n2C2CCCCC2)o1 (10 µM) | inactive: 0 | inactive: 0 | inactive: 0 | inactive: 0 | inactive: 0 | inactive: 0 | inactive: 0 | inactive: 0 | 0 | 0 | 0 | 0 | 0 | 0 | 0 | 0 | 0 | 0 | 0 | 0 |
| N#CC(=Cc1ccc(O)c(O)c1)C(=O)NCc1ccccc1 (mixture of isomers) (10 µM) | inactive: 0 | inactive: 0 | inactive: 0 | inactive: 0 | inactive: 0 | inactive: 0 | inactive: 0 | inactive: 0 | 0 | 0 | 0 | 0 | 0 | 0 | 0 | 0 | 0 | 0 | 0 | 0 |
| O=C1NC(=NCc2cccs2)S/C1=C\c1ccc2ncccc2c1 (10 µM) | inactive: 0 | inactive: 0 | inactive: 0 | inactive: 0 | inactive: 0 | inactive: 0 | inactive: 0 | inactive: 0 | 0 | 0 | 0 | 0 | 0 | 0 | 0 | 0 | 0 | 5 | 0 | 0 |
| COc1cc2c(Nc3ccc(NC(=O)c4ccccc4)cc3)ncnc2cc1OCCCN1CCOCC1 (10 µM) | inactive: 0 | inactive: 0 | inactive: 0 | inactive: 0 | inactive: 0 | inactive: 0 | inactive: 0 | inactive: 0 | 5 | 0 | 0 | 0 | 0 | 0 | 0 | 0 | 0 | 0 | 0 | 0 |
| CN1CCN(C2CCN(C(=O)Nc3cc(Oc4ccc(NC(=O)C5(C(=O)Nc6ccc(F)cc6)CC5)c(F)c4)ccn3)CC2)CC1 [Golvatinib] (2.5 µM) | inactive: 0 | inactive: 0 | inactive: 0 | inactive: 0 | inactive: 0 | inactive: 0 | inactive: 0 | inactive: 0 | 2 | 0 | 0 | 0 | 0 | 0 | 0 | 0 | 0 | 0 | 1 | 0 |
| CN1CCN(c2ccc(Nc3cc(-c4cccc(-n5ccc6cc(C7CC7)cc(F)c6c5=O)c4CO)cn(C)c3=O)nc2)CC1 (2.5 µM) | inactive: 0 | inactive: 0 | inactive: 0 | inactive: 0 | inactive: 0 | inactive: 0 | inactive: 0 | inactive: 0 | 0 | 0 | 0 | 0 | 0 | 0 | 0 | 0 | 0 | 0 | 0 |  |
| O=c1cc(N2CCOCC2)oc2c(-c3ccccc3)cccc12 (10 µM) | inactive: 0 | inactive: 0 | inactive: 0 | inactive: 0 | inactive: 0 | inactive: 0 | inactive: 0 | inactive: 0 | 0 | 0 | 0 | 0 | 0 | 0 | 0 | 0 | 0 | 0 | 0 | 0 |
| CC(C)(/C=C(\C#N)C(=O)N1CCC[C@@H](n2nc(-c3ccc(Oc4ccccc4)cc3F)c3c(N)ncnc32)C1)N1CCN(C2COC2)CC1 (2.5 µM) | inactive: 0 | inactive: 0 | inactive: 0 | inactive: 0 | inactive: 0 | inactive: 0 | inactive: 0 | inactive: 0 | 0 | 0 | 0 | 0 | 0 | 0 | 0 | 0 | 0 | 0 | 0 |  |
| Nc1ncnc2c1c(-c1ccc(Oc3ccccc3)cc1)cn2C1CCCC1 (2.5 µM) | inactive: 0 | inactive: 0 | inactive: 0 | inactive: 0 | inactive: 0 | inactive: 0 | inactive: 0 | inactive: 0 | 0 | 0 | 0 | 0 | 1 | 0 | 0 | 0 | 0 | 0 | 0 | 0 |
| NS(=O)(=O)c1ccc(Nc2nc(OCC3CCCCC3)c3[nH]cnc3n2)cc1 (10 µM) | inactive: 0 | inactive: 0 | inactive: 0 | inactive: 0 | inactive: 0 | inactive: 0 | inactive: 0 | inactive: 0 | 0 | 0 | 0 | 0 | 0 | 0 | 0 | 0 | 0 | 0 | 0 | 0 |
| Cn1c(=O)c(Oc2ccc(F)cc2F)cc2cnc(NC3CCOCC3)nc21 [R1487 (Hydrochloride)] (10 µM) | inactive: 0 | inactive: 0 | inactive: 0 | inactive: 0 | inactive: 0 | inactive: 0 | inactive: 0 | inactive: 0 | 0 | 0 | 0 | 0 | 0 | 0 | 0 | 0 | 0 | 0 | 0 | 0 |
| O=c1oc2c(C3OCCCO3)c(O)ccc2c2c1CNCC2 (10 µM) | inactive: 0 | inactive: 0 | inactive: 0 | inactive: 0 | inactive: 0 | inactive: 0 | inactive: 0 | inactive: 0 | 0 | 0 | 0 | 0 | 0 | 0 | 0 | 0 | 0 | 0 | 0 | 0 |
| N#Cc1ccc2[nH]c(O)c(-c3ccc(CN4CCOCC4)cn3)c2c1 (10 µM) | inactive: 0 | inactive: 0 | inactive: 0 | inactive: 0 | inactive: 0 | inactive: 0 | inactive: 0 | inactive: 0 | 0 | 0 | 0 | 0 | 0 | 0 | 0 | 0 | 0 | 0 | 0 |  |
| CCN(CC)CCCCNc1ncc2cc(-c3c(Cl)cccc3Cl)c(NC(=O)NC(C)(C)C)nc2n1 (2.5 µM) | inactive: 0 | inactive: 0 | inactive: 0 | inactive: 0 | inactive: 0 | inactive: 0 | inactive: 0 | inactive: 0 | 2 | 0 | 1 | 0 | 1 | 0 | 0 | 1 | 3 | 2 | 0 | 1 |
| CNc1nc(-c2ccc3c(N)n[nH]c3c2)cc(N2C[C@@H](C(=O)NC3CCCCC3)CC[C@H]2C)n1 (10 µM) | inactive: 0 | inactive: 0 | inactive: 0 | inactive: 0 | inactive: 0 | inactive: 0 | inactive: 0 | inactive: 0 | 2 | 0 | 0 | 0 | 0 | 0 | 0 | 0 | 0 | 0 | 0 | 0 |
| COc1cc2ncn(-c3cc(OCc4ccccc4C(F)(F)F)c(C(N)=O)s3)c2cc1OC (10 µM) | inactive: 0 | inactive: 0 | inactive: 0 | inactive: 0 | inactive: 0 | inactive: 0 | inactive: 0 | inactive: 0 | 0 | 0 | 0 | 0 | 0 | 0 | 0 | 0 | 0 | 0 | 0 | 0 |
| Cc1ccc(F)c(NC(=O)Nc2ccc(-c3cccc4[nH]nc(N)c34)cc2)c1 [Linifanib] (2.5 µM) | inactive: 0 | inactive: 0 | inactive: 0 | active: 1 | inactive: 0 | inactive: 0 | inactive: 0 | inactive: 0 | 5 | 0 | 5 | 0 | 0 | 0 | 0 | 0 | 0 | 2 | 0 | 0 |
| O=c1cc(-c2ccccc2)oc2c(O)c(O)ccc12 [7,8-Dihydroxyflavone] (10 µM) | inactive: 0 | inactive: 0 | inactive: 0 | inactive: 0 | inactive: 0 | inactive: 0 | inactive: 0 | inactive: 0 | 0 | 0 | 0 | 0 | 0 | 0 | 0 | 0 | 0 | 0 | 0 | 0 |
| O=C(/C=C/c1ccc(O)c(O)c1)c1ccc(O)cc1O [Butein] (10 µM) | inactive: 0 | inactive: 0 | inactive: 0 | inactive: 0 | active: 1 | inactive: 0 | inactive: 0 | inactive: 0 | 3 | 0 | 3 | 0 | 1 | 0 | 0 | 0 | 3 | 0 | 3 | 0 |
| Cc1cccc(Cn2nc(C3CC3)c3c(NC(=O)c4cnc5cc(OCCN6CCN(C)CC6)ccn45)cccc32)n1 (10 µM) | inactive: 0 | inactive: 0 | inactive: 0 | inactive: 0 | inactive: 0 | inactive: 0 | inactive: 0 | inactive: 0 | 0 | 0 | 0 | 0 | 0 | 0 | 0 | 0 | 0 | 0 | 0 | 0 |

6 entries from above, comma-delimited:
SMILES,kinase-Nluc reporter destabilization hit call [1],kinase-Nluc reporter destabilization hit call [2],kinase-Nluc reporter destabilization hit call [3],kinase-Nluc reporter destabilization hit call [4],kinase-Nluc reporter destabilization hit call [5],kinase-Nluc reporter destabilization hit call [6],kinase-Nluc reporter destabilization hit call [7],kinase-Nluc reporter destabilization hit call [8],number of time points [9],number of time points [10],number of time points [11],number of time points [12],number of time points [13],number of time points [14],number of time points [15],number of time points [16],number of time points [17],number of time points [18],number of time points [19],number of time points [20]
COc1cc2c(Nc3ccc(NC(=O)c4ccccc4)cc3)ncnc2cc1OCCCN1CCOCC1 (10 µM),inactive: 0,inactive: 0,inactive: 0,inactive: 0,inactive: 0,inactive: 0,inactive: 0,inactive: 0,5,0,0,0,0,0,0,0,0,0,0,0
CN1CCN(C2CCN(C(=O)Nc3cc(Oc4ccc(NC(=O)C5(C(=O)Nc6ccc(F)cc6)CC5)c(F)c4)ccn3)CC2)CC1 [Golvatinib] (2.5 µM),inactive: 0,inactive: 0,inactive: 0,inactive: 0,inactive: 0,inactive: 0,inactive: 0,inactive: 0,2,0,0,0,0,0,0,0,0,0,1,0
CN1CCN(c2ccc(Nc3cc(-c4cccc(-n5ccc6cc(C7CC7)cc(F)c6c5=O)c4CO)cn(C)c3=O)nc2)CC1 (2.5 µM),inactive: 0,inactive: 0,inactive: 0,inactive: 0,inactive: 0,inactive: 0,inactive: 0,inactive: 0,0,0,0,0,0,0,0,0,0,0,0,
O=c1cc(N2CCOCC2)oc2c(-c3ccccc3)cccc12 (10 µM),inactive: 0,inactive: 0,inactive: 0,inactive: 0,inactive: 0,inactive: 0,inactive: 0,inactive: 0,0,0,0,0,0,0,0,0,0,0,0,0
CC(C)(/C=C(\C#N)C(=O)N1CCC[C@@H](n2nc(-c3ccc(Oc4ccccc4)cc3F)c3c(N)ncnc32)C1)N1CCN(C2COC2)CC1 (2.5 µM),inactive: 0,inactive: 0,inactive: 0,inactive: 0,inactive: 0,inactive: 0,inactive: 0,inactive: 0,0,0,0,0,0,0,0,0,0,0,0,
Nc1ncnc2c1c(-c1ccc(Oc3ccccc3)cc1)cn2C1CCCC1 (2.5 µM),inactive: 0,inactive: 0,inactive: 0,inactive: 0,inactive: 0,inactive: 0,inactive: 0,inactive: 0,0,0,0,0,1,0,0,0,0,0,0,0
